Experimental data published in the supplement of paper PMC12067093, “Discovery and optimisation of a covalent ligand for TRIM25 and its application to targeted protein ubiquitination” (Chemical Science, 2025).
The other results are listed elsewhere or left out.

Columns and labels:
Test in all cases: probe-labelled cysteine peptide fold change vs DMSO (competition) (log2 fold change); higher = less target engagement (more negative = stronger competition)
Conditions in all cases: THP-1, incubation time: 4 h
[1] = biological target: HIVEP3_Q5T1R4_1369_GTTVCGADVHEVGPGPSGLSEEQSR (UniProt Q5T1R4)
[2] = biological target: HIVEP3_Q5T1R4_1756_YVCEECGIR (UniProt Q5T1R4)
[3] = biological target: HIVEP3_Q5T1R4_324_CSLSQSSTAQSLEDPPPFVEPSSEHPLSHKPEDTHTIK (UniProt Q5T1R4)
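Also: competitive chemoproteomic profiling in live THP-1 cells with an iodoacetamide desthiobiotin (IA-DTB) probe, comparing probe-labelled peptide intensities in compound-treated cells against DMSO-treated controls.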

CC1Cc2ccccc2N1C(=O)C1CCCN(C(=O)CCl)C1 (mixture of isomers) [TRIM25 ligand 11 (diastereomer mixture)]
probe-labelled cysteine peptide fold change ([1]; 10 µM): 0.0463 | probe-labelled cysteine peptide fold change ([1]; 50 µM): -0.155 | probe-labelled cysteine peptide fold change ([2]; 10 µM): 0.0586 | probe-labelled cysteine peptide fold change ([2]; 50 µM): 0.0354 | probe-labelled cysteine peptide fold change ([3]; 10 µM): 0.401 | probe-labelled cysteine peptide fold change ([3]; 50 µM): 0.0467
